# Results are given in words; binding and its absence hold for the method and conditions named. In cells and extracts the contact can be indirect. Some entries that bind do so weakly or less than the wild type.
# Sequences of proteins named here, by UniProt entry; tags and fusion partners are left off.
# UniProt Q61188: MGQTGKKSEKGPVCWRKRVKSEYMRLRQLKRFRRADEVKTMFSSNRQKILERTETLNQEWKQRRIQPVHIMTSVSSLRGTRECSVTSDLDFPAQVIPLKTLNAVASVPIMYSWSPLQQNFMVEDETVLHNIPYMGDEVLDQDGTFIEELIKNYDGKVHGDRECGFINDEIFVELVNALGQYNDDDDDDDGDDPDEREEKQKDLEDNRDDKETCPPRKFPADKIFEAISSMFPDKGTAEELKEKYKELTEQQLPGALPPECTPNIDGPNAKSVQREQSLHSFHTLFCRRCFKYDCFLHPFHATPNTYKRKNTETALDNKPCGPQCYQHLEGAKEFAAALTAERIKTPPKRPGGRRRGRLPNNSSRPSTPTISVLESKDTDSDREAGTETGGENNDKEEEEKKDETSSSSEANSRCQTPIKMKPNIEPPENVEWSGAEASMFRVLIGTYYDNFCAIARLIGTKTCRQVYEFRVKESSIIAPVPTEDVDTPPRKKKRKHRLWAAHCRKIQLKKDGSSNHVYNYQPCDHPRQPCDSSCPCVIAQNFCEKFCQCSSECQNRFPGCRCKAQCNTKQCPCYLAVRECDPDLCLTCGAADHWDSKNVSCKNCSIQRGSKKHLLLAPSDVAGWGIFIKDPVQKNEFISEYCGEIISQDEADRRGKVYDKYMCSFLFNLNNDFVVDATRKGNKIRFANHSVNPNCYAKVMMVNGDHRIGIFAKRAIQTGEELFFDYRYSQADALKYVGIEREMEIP
# UniProt Q9Z1E3: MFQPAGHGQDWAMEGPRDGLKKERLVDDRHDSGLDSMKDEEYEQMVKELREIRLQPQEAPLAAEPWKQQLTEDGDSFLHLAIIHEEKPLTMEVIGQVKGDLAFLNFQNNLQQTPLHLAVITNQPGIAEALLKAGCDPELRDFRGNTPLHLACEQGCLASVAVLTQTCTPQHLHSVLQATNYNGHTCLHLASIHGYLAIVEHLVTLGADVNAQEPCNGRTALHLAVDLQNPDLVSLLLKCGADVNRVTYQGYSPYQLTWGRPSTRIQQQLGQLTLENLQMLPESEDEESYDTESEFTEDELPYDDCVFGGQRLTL
# Target: EZH2 (mouse (endogenous in E11.5 AGM sections)) (UniProt Q61188)
# Test: proximity ligation; Duolink PLA on 12 um sections of E11.5 mouse AGM fixed in 2% paraformaldehyde, permeabilised in methanol; primary antibodies to IκBα and EZH2 1:200 overnight at 4 degrees
substance,measurement,value
"IκBα (Nfkbia, the inhibitor of NF-κB) (from UniProt Q9Z1E3 1-314)",binding,binds

# — paper PMC11144194
